Where two headings read alike, the source gives them in different places. No constants are given. Whether binding was seen depends on the method and setting. Binding seen in cells or lysates may run through a third protein. Some binding calls cover weakened binding; strength is not graded here.
T1: Alpha-1-Syntrophin (human (endogenous in MDA-MB-231)) (UniProt Q13424)
T1 sequence: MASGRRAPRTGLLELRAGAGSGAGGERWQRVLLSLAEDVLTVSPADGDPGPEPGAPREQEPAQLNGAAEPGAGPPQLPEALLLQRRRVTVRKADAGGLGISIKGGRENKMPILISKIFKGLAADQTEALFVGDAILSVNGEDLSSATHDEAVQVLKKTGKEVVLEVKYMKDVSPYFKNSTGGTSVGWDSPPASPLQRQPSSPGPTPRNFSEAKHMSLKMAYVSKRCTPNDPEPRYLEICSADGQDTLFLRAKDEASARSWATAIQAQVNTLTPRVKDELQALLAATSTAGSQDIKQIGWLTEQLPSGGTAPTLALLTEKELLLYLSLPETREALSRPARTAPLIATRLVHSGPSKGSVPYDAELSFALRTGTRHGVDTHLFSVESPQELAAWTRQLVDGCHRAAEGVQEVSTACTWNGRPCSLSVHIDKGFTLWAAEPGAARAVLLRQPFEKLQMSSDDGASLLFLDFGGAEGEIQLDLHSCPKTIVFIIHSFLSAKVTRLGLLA

Amino acid sequences for entries named in this document (tags omitted).
UniProt P61586: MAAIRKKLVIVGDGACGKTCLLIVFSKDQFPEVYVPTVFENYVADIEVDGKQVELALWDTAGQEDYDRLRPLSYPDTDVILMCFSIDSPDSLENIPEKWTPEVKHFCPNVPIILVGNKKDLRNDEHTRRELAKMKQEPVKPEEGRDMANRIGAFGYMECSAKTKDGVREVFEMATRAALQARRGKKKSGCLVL

T2: p66Shc (human (endogenous in MDA-MB-231)) (UniProt P29353)
T2 sequence: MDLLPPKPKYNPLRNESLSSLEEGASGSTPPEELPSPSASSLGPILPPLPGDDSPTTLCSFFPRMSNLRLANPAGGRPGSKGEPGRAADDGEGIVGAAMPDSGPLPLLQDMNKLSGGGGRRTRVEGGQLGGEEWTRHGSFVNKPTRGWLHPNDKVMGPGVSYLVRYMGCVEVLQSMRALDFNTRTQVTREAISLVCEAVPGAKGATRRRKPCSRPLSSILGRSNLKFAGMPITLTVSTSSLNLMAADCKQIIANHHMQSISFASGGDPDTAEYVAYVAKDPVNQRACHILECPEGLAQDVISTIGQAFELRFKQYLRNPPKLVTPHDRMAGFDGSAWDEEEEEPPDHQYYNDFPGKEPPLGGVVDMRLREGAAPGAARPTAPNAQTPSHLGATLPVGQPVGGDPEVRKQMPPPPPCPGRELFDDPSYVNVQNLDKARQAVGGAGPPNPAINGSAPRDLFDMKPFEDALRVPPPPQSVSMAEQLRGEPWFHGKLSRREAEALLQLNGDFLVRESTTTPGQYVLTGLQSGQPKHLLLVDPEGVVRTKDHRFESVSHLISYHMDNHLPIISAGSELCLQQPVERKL

B1: Alpha-1-Syntrophin (protein, UniProt Q13424 1-505)
chain: T1 sequence
B2: p66Shc (protein, UniProt P29353-1 1-583)
chain: T2 sequence

How the values were obtained:
Assay in all cases: co-IP; endogenous proteins from MDA-MB-231 lysate (NP-40 lysis buffer: 1% NP-40, 150 mM NaCl, 2 mM EDTA, 20 mM Tris-Cl, 10% glycerol) on antibody/protein G-agarose immunobeads, overnight at 4°C, washed with 1X PBS, Western blot; cells untreated or pretreated with DMSO or cytochalasin D (0.5, 2, 4, 6 µM) for 6 h; IgG as control IP
[1] = biological target: T1, Alpha-1-Syntrophin (human (endogenous in MDA-MB-231))
[2] = biological target: T2, p66Shc (human (endogenous in MDA-MB-231))
[3] = biological target: RhoA GTPase (human (endogenous in MDA-MB-231)) (UniProt P61586)
[4] = biological target: T2, p66Shc (human (endogenous in MDA-MB-231)); remark: listed apart in the source
[5] = biological target: T1, Alpha-1-Syntrophin (human (endogenous in MDA-MB-231)); remark: listed apart in the source

binding [1] | binding [2] | binding [3] | binding [4] | binding [5] | Molecule
binds | binds |  |  |  | RhoA GTPase (from UniProt P61586 1-193)
 |  | binds | binds |  | B1
 |  | binds |  | binds | B2

Source: paper PMC8904154
